The values below come from patent publication US11065203B2, “Liposomal compositions and uses of same” (Technion Research & Development Foundation Limited, priority 2009, dated 2021).

The series is described as follows: Proteomics analysis (trypsin digest, LC-MS/MS) of hMSC ghosts and derived CDLs, conditioned or unconditioned by PC3 medium. The arrangement: species or system human. To be noted: LC-MS/MS peak area per protein; for Ratio of expression Cond. CDLs/Cond. Ghosts: CDLs derived from conditioned hMSCs versus conditioned ghosts; for Ratio of expression Cond Ghosts/Ghosts: hMSC ghosts conditioned by PC3 medium versus unconditioned ghosts.

B1: Q00341 (protein, UniProt Q00341 1-1268, looked up)
chain: MSSVAVLTQESFAEHRSGLVPQQIKVATLNSEEESDPPTYKDAFPPLPEKAACLESAQEPAGAWGNKIRPIKASVITQVFHVPLEERKYKDMNQFGEGEQAKICLEIMQRTGAHLELSLAKDQGLSIMVSGKLDAVMKARKDIVARLQTQASATVAIPKEHHRFVIGKNGEKLQDLELKTATKIQIPRPDDPSNQIKITGTKEGIEKARHEVLLISAEQDKRAVERLEVEKAFHPFIAGPYNRLVGEIMQETGTRINIPPPSVNRTEIVFTGEKEQLAQAVARIKKIYEEKKKKTTTIAVEVKKSQHKYVIGPKGNSLQEILERTGVSVEIPPSDSISETVILRGEPEKLGQALTEVYAKANSFTVSSVAAPSWLHRFIIGKKGQNLAKITQQMPKVHIEFTEGEDKITLEGPTEDVNVAQEQIEGMVKDLINRMDYVEINIDHKFHRHLIGKSGANINRIKDQYKVSVRIPPDSEKSNLIRIEGDPQGVQQAKRELLELASRMENERTKDLIIEQRFHRTIIGQKGERIREIRDKFPEVIINFPDPAQKSDIVQLRGPKNEVEKCTKYMQKMVADLVENSYSISVPIFKQFHKNIIGKGGANIKKIREESNTKIDLPAENSNSETIIITGKRANCEAARSRILSIQKDLANIAEVEVSIPAKLHNSLIGTKGRLIRSIMEECGGVHIHFPVEGSGSDTVVIRGPSSDVEKAKKQLLHLAEEKQTKSFTVDIRAKPEYHKFLIGKGGGKIRKVRDSTGARVIFPAAEDKDQDLITIIGKEDAVREAQKELEALIQNLDNVVEDSMLVDPKHHRHFVIRRGQVLREIAEEYGGVMVSFPRSGTQSDKVTLKGAKDCVEAAKKRIQEIIEDLEAQVTLECAIPQKFHRSVMGPKGSRIQQITRDFSVQIKFPDREENAVHSTEPVVQENGDEAGEGREAKDCDPGSPRRCDIIIISGRKEKCEAAKEALEALVPVTIEVEVPFDLHRYVIGQKGSGIRKMMDEFEVNIHVPAPELQSDIIAITGLAANLDRAKAGLLERVKELQAEQEDRALRSFKLSVTVDPKYHPKIIGRKGAVITQIRLEHDVNIQFPDKDDGNQPQDQITITGYEKNTEAARDAILRIVGELEQMVSEDVPLDHRVHARIIGARGKAIRKIMDEFKVDIRFPQSGAPDPNCVTVTGLPENVEEAIDHILNLEEEYLADVVDSEALQVYMKPPAHEEAKAPSRGFVVRDAPWTASSSEKAPDMSSSEEFPSFGAQVAPKTLPWGPKR
modifications: full-length
As to B1, the “Ratio of expression Cond. CDLs/Cond. Ghosts” value is 11% and the “Ratio of expression Cond Ghosts/Ghosts” value is 100%.

B2: P17813 (protein, UniProt P17813 1-658, looked up)
chain: MDRGTLPLAVALLLASCSLSPTSLAETVHCDLQPVGPERGEVTYTTSQVSKGCVAQAPNAILEVHVLFLEFPTGPSQLELTLQASKQNGTWPREVLLVLSVNSSVFLHLQALGIPLHLAYNSSLVTFQEPPGVNTTELPSFPKTQILEWAAERGPITSAAELNDPQSILLRLGQAQGSLSFCMLEASQDMGRTLEWRPRTPALVRGCHLEGVAGHKEAHILRVLPGHSAGPRTVTVKVELSCAPGDLDAVLILQGPPYVSWLIDANHNMQIWTTGEYSFKIFPEKNIRGFKLPDTPQGLLGEARMLNASIVASFVELPLASIVSLHASSCGGRLQTSPAPIQTTPPKDTCSPELLMSLIQTKCADDAMTLVLKKELVAHLKCTITGLTFWDPSCEAEDRGDKFVLRSAYSSCGMQVSASMISNEAVVNILSSSSPQRKKVHCLNMDSLSFQLGLYLSPHFLQASNTIEPGQQSFVQVRVSPSVSEFLLQLDSCHLDLGPEGGTVELIQGRAAKGNCVSLLSPSPEGDPRFSFLLHFYTVPIPKTGTLSCTVALRPKTGSQDQEVHRTVFMRLNIISPDLSGCTSKGLVLPAVLGITFGAFLIGALLTAALWYIYSHTRSPSKREPVVAVAAPASSESSSTNHSIGSTQSTPCSTSSMA
modifications: full-length
Turning to B2, the “Ratio of expression Cond. CDLs/Cond. Ghosts” value is recorded as 11% and the “Ratio of expression Cond Ghosts/Ghosts” value is 100%.

B3: P0C7P4 (protein, UniProt P0C7P4 1-283, looked up)
chain: MQQIYTVKEIRSVAARSGPFAPVLSATSRGVAGALRPLVQATVPATPEQPVLDLKRPFLSRESLSGQAVRRPLVASVGLNVPASVCYSHTDIKVPDFSEYRRLEVLDSTKSSRESTEARKGFSYLVTGVTTVGVAYAAKNAVTQFVSSMSASADVLALAKIEIKLSDIPEGKNMAFKWRGKPLFVRHRTQKEIKQEAAVELSQLRDPQHDLDRVKKPEWVILIGVCTHLGCVPIANAGDFGGYYCPCHGSHYDASGRIRLGPATLNLEVPTYEFTSDDMVIVG
modifications: full-length
Consider B3, for which the “Ratio of expression Cond. CDLs/Cond. Ghosts” value was found to be 11% and the “Ratio of expression Cond Ghosts/Ghosts” value turned out to be 100%.

B4: P11166 (protein, UniProt P11166 1-492, looked up)
chain: MEPSSKKLTGRLMLAVGGAVLGSLQFGYNTGVINAPQKVIEEFYNQTWVHRYGESILPTTLTTLWSLSVAIFSVGGMIGSFSVGLFVNRFGRRNSMLMMNLLAFVSAVLMGFSKLGKSFEMLILGRFIIGVYCGLTTGFVPMYVGEVSPTALRGALGTLHQLGIVVGILIAQVFGLDSIMGNKDLWPLLLSIIFIPALLQCIVLPFCPESPRFLLINRNEENRAKSVLKKLRGTADVTHDLQEMKEESRQMMREKKVTILELFRSPAYRQPILIAVVLQLSQQLSGINAVFYYSTSIFEKAGVQQPVYATIGSGIVNTAFTVVSLFVVERAGRRTLHLIGLAGMAGCAILMTIALALLEQLPWMSYLSIVAIFGFVAFFEVGPGPIPWFIVAELFSQGPRPAAIAVAGFSNWTSNFIVGMCFQYVEQLCGPYVFIIFTVLLVLFFIFTYFKVPETKGRTFDEIASGFRQGGASQSDKTPEELFHPLGADSQV
modifications: full-length
B4: the “Ratio of expression Cond. CDLs/Cond. Ghosts” value worked out at 9% and the “Ratio of expression Cond Ghosts/Ghosts” value came to 100%.

B5: Q9NX63 (protein, UniProt Q9NX63 1-227, looked up)
chain: MGGTTSTRRVTFEADENENITVVKGIRLSENVIDRMKESSPSGSKSQRYSGAYGASVSDEELKRRVAEELALEQAKKESEDQKRLKQAKELDRERAAANEQLTRAILRERICSEEERAKAKHLARQLEEKDRVLKKQDAFYKEQLARLEERSSEFYRVTTEQYQKAAEEVEAKFKRYESHPVCADLQAKILQCYRENTHQTLKCSALATQYMHCVNHAKQSMLEKGG
modifications: full-length
As for B5, the “Ratio of expression Cond. CDLs/Cond. Ghosts” value is reported as 10% and the “Ratio of expression Cond Ghosts/Ghosts” value is reported as 100%.

B6: Q12906 (protein, UniProt Q12906 1-894, looked up)
chain: MRPMRIFVNDDRHVMAKHSSVYPTQEELEAVQNMVSHTERALKAVSDWIDEQEKGSSEQAESDNMDVPPEDDSKEGAGEQKTEHMTRTLRGVMRVGLVAKGLLLKGDLDLELVLLCKEKPTTALLDKVADNLAIQLAAVTEDKYEILQSVDDAAIVIKNTKEPPLSLTIHLTSPVVREEMEKVLAGETLSVNDPPDVLDRQKCLAALASLRHAKWFQARANGLKSCVIVIRVLRDLCTRVPTWGPLRGWPLELLCEKSIGTANRPMGAGEALRRVLECLASGIVMPDGSGIYDPCEKEATDAIGHLDRQQREDITQSAQHALRLAAFGQLHKVLGMDPLPSKMPKKPKNENPVDYTVQIPPSTTYAITPMKRPMEEDGEEKSPSKKKKKIQKKEEKAEPPQAMNALMRLNQLKPGLQYKLVSQTGPVHAPIFTMSVEVDGNSFEASGPSKKTAKLHVAVKVLQDMGLPTGAEGRDSSKGEDSAEETEAKPAVVAPAPVVEAVSTPSAAFPSDATAEQGPILTKHGKNPVMELNEKRRGLKYELISETGGSHDKRFVMEVEVDGQKFQGAGSNKKVAKAYAALAALEKLFPDTPLALDANKKKRAPVPVRGGPKFAAKPHNPGFGMGGPMHNEVPPPPNLRGRGRGGSIRGRGRGRGFGGANHGGYMNAGAGYGSYGYGGNSATAGYSQFYSNGGHSGNASGGGGGGGGGSSGYGSYYQGDNYNSPVPPKHAGKKQPHGGQQKPSYGSGYQSHQGQQQSYNQSPYSNYGPPQGKQKGYNHGQGSYSYSNSYNSPGGGGGSDYNYESKFNYSGSGGRSGGNSYGSGGASYNPGSHGGYGGGSGGGSSYQGKQGGYSQSNYNSPGSGQNYSGPPSSYQSSQGGYGRNADHSMNYQYR
modifications: full-length
Consider B6, for which the “Ratio of expression Cond. CDLs/Cond. Ghosts” value was determined as 10% and the “Ratio of expression Cond Ghosts/Ghosts” value was 100%.

B7: Q99584 (protein, UniProt Q99584 1-98, looked up)
chain: MAAEPLTELEESIETVVTTFFTFARQEGRKDSLSVNEFKELVTQQLPHLLKDVGSLDEKMKSLDVNQDSELKFNEYWRLIGELAKEIRKKKDLKIRKK
modifications: full-length
Consider B7, for which the “Ratio of expression Cond. CDLs/Cond. Ghosts” value was determined as 9% and the “Ratio of expression Cond Ghosts/Ghosts” value worked out at 100%.

B8: P14927 (protein, UniProt P14927 1-111, looked up)
chain: MAGKQAVSASGKWLDGIRKWYYNAAGFNKLGLMRDDTIYEDEDVKEAIRRLPENLYNDRMFRIKRALDLNLKHQILPKEQWTKYEEENFYLEPYLKEVIRERKEREEWAKK
modifications: full-length
In the case of B8, the “Ratio of expression Cond. CDLs/Cond. Ghosts” value is 8% and the “Ratio of expression Cond Ghosts/Ghosts” value is recorded as 100%.

B9: Q9NQC3 (protein, UniProt Q9NQC3 1-1192, looked up)
chain: MEDLDQSPLVSSSDSPPRPQPAFKYQFVREPEDEEEEEEEEEEDEDEDLEELEVLERKPAAGLSAAPVPTAPAAGAPLMDFGNDFVPPAPRGPLPAAPPVAPERQPSWDPSPVSSTVPAPSPLSAAAVSPSKLPEDDEPPARPPPPPPASVSPQAEPVWTPPAPAPAAPPSTPAAPKRRGSSGSVDETLFALPAASEPVIRSSAENMDLKEQPGNTISAGQEDFPSVLLETAASLPSLSPLSAASFKEHEYLGNLSTVLPTEGTLQENVSEASKEVSEKAKTLLIDRDLTEFSELEYSEMGSSFSVSPKAESAVIVANPREEIIVKNKDEEEKLVSNNILHNQQELPTALTKLVKEDEVVSSEKAKDSFNEKRVAVEAPMREEYADFKPFERVWEVKDSKEDSDMLAAGGKIESNLESKVDKKCFADSLEQTNHEKDSESSNDDTSFPSTPEGIKDRSGAYITCAPFNPAATESIATNIFPLLGDPTSENKTDEKKIEEKKAQIVTEKNTSTKTSNPFLVAAQDSETDYVTTDNLTKVTEEVVANMPEGLTPDLVQEACESELNEVTGTKIAYETKMDLVQTSEVMQESLYPAAQLCPSFEESEATPSPVLPDIVMEAPLNSAVPSAGASVIQPSSSPLEASSVNYESIKHEPENPPPYEEAMSVSLKKVSGIKEEIKEPENINAALQETEAPYISIACDLIKETKLSAEPAPDFSDYSEMAKVEQPVPDHSELVEDSSPDSEPVDLFSDDSIPDVPQKQDETVMLVKESLTETSFESMIEYENKEKLSALPPEGGKPYLESFKLSLDNTKDTLLPDEVSTLSKKEKIPLQMEELSTAVYSNDDLFISKEAQIRETETFSDSSPIEIIDEFPTLISSKTDSFSKLAREYTDLEVSHKSEIANAPDGAGSLPCTELPHDLSLKNIQPKVEEKISFSDDFSKNGSATSKVLLLPPDVSALATQAEIESIVKPKVLVKEAEKKLPSDTEKEDRSPSAIFSAELSKTSVVDLLYWRDIKKTGVVFGASLFLLLSLTVFSIVSVTAYIALALLSVTISFRIYKGVIQAIQKSDEGHPFRAYLESEVAISEELVQKYSNSALGHVNCTIKELRRLFLVDDLVDSLKFAVLMWVFTYVGALFNGLTLLILALISLFSVPVIYERHQAQIDHYLGLANKNVKDAMAKIQAKIPGLKRKAE
modifications: full-length
Take B9: the “Ratio of expression Cond. CDLs/Cond. Ghosts” value came to 10% and the “Ratio of expression Cond Ghosts/Ghosts” value stood at 100%.
